Values of other authors, collected in patent US20100068204A1, “4-ARYLOXYQUINOLIN-2(1H)-ONES AS MTOR KINASE AND PI3 KINASE INHIBITORS, FOR USE AS ANTI-CANCER AGENTS” (Wyeth, priority 2008, published 2010).
Structures can show the parent of a compound that is named as a salt. For at least one compound, name, drawing or mass did not settle the structure.

System: human tumor xenograft models
Conditions: prostrate, breast, ovarian, lung, multiple myeloma, and brain cancers; cited from earlier work

In the case of `N=C(N)NCCC[C@H](NC(=O)CCC(=O)OC[N+]1(c2cc(=O)c3cccc(-c4ccccc4)c3o2)CCOCC1)C(=O)NCC(=O)N[C@@H](CC(=O)O)C(=O)N[C@@H](CO)C(=O)[O-]` [SF-1126, N^2-(1,4-dioxo-4-((4-(4-oxo-8-phenyl-4H-1-benzopyran-2-yl)morpholinium-4-yl)methoxy)butyl)-L-arginylglycyl-L-α-aspartyl-L-serine inner salt], the “activity in preclinical mouse cancer models” value is given as “active”.
